No constants are given. Whether binding was seen depends on the method and setting. In cells and extracts the contact can be indirect. These calls come from enrichment with a bait or labelling near it, and not all partners need be listed. No binding means not detected with the bait.
Target: T1, endogenous endoglin (ENG) (human (endogenous in HAOECs, HUVECs, HPAECs)) (UniProt P17813)
T1 sequence: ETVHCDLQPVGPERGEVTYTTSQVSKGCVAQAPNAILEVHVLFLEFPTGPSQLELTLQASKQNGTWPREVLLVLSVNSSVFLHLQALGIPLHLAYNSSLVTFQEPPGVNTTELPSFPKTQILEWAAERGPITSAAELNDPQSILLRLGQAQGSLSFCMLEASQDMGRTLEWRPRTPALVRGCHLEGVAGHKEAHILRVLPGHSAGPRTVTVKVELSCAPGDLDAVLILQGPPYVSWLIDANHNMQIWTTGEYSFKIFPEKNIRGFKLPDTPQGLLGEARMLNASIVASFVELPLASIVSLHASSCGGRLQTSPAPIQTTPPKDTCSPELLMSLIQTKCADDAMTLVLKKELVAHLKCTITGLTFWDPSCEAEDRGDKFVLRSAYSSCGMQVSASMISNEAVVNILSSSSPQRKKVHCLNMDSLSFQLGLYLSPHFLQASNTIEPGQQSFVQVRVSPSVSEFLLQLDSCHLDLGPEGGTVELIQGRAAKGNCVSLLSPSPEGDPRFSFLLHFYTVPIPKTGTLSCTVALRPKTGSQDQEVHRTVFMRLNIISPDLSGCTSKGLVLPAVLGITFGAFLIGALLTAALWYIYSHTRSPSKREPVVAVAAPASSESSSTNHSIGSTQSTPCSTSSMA
Experiment: affinity purification with mass spectrometry; TRC105 (anti-ENG) NHS affinity column against a BSA-NHS control column; lysates (1% Triton-X100/PBS, 2 mM EDTA) of HAOECs, HUVECs and HPAECs kept in 0.1% FBS, 10% FBS, or 0.1% FBS with 0.25 ng/ml pro:BMP9 for 40 min; elution with 0.15 M glycine pH 2.5; LC-MS/MS

B1: RALA (protein, UniProt P11233 1-206)
chain: MAANKPKGQNSLALHKVIMVGSGGVGKSALTLQFMYDEFVEDYEPTKADSYRKKVVLDGEEVQIDILDTAGQEDYAAIRDNYFRSGEGFLCVFSITEMESFAATADFREQILRVKEDENVPFLLVGNKSDLEDKRQVSVEEAKNRAEQWNVNYVETSAKTRANVDKVFFDLMREIRARKMEDSKEKNGKKKRKSLAKRIRERCCIL
- binding: no binding

— PMC12824264
